# Screening data, single-dose tests

Source: ChEMBL document CHEMBL3988442, “University of Dundee, Small-Polar-MMV Screening Library” (2021).

Mtb cholesterol medium: 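Growth of Mycobacterium tuberculosis over 4 days (cholesterol / DPPC medium with tyloxapol); the read-out is not stated. Tested at 50 µM. Higher reads as more growth inhibition (inferred: compounds with an IC50 in retests scored well above the rest). Size under these conditions: about 69,000 compounds, about 370 of them at 50% or above in at least one test.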
Mtb glucose medium: 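Growth of Mycobacterium tuberculosis over 3 days (7H9 medium with glucose and tyloxapol); the read-out is not stated. Compounds at 50 µM. Higher reads as more growth inhibition (inferred: compounds with an IC50 in retests scored well above the rest). About 69,000 compounds were tested under these conditions; 1.1% (about 760) showed 50% or more at least once.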

Values are the deposited “Percent Effect”, in %.
How 0% and 100% were set is not recorded. Most values in the screen are low, and negative values occur.
Compounds were drawn at random from those tested, without regard to their results.
Two or more numbers in one place are separate tests of the same structure; such repeats can differ widely.

structure,Mtb cholesterol medium,Mtb glucose medium
[H][C@@]12CCN(Cc3nccs3)C[C@]1([H])[C@@H](CN(C)Cc1ccco1)OC2,8.877%,26.94%
O=C(NCCn1ccnc1-c1cc2n(n1)CCNC2)c1ccc(F)cc1,-17.91%,-36.76% and -2.824%
CN(C)c1cc(CNC(=O)Nc2ccc(C#N)cc2)ccn1,-0.5137%,16.13%
O=S(=O)(c1ccccc1)N1CCCN(CCCn2ccnc2)CC1,-0.8341%,6.648%
CC(C)c1ccc(CCC(=O)N2CCOCC2c2ncon2)cc1 (stereo not drawn),1.009%,-22.38% and 1.612%
N#Cc1c(Cl)nsc1NCC1(c2ccccc2)CCC1,-10.47%,27.8%
CC(C)CCN1CC2(CCN(C(=O)C3(C)CCCCO3)CC2)OC1=O (stereo not drawn),-14.16%,5.25%
C[S+]([O-])c1nncn1CC(=O)c1ccc2c(c1)CCO2 (stereo not drawn),7.03%,24.02%
Cc1nc(C)c2c(n1)CCN(C(=O)C1(C#N)CC1)CC2,-0.5941%,-26.05%
O=C(CC1CC2(CCN(CC3CC3)CC2)c2ccccc21)NC1CCC1.O=C(O)C(F)(F)F (stereo not drawn),-16.24%,-19.5%
Cn1ccc(CN2CCC3(CCCN3CC3CC3)CC2)n1.O=C(O)C(F)(F)F.O=C(O)C(F)(F)F,-8.168%,8.041%
NS(=O)(=O)CCNC(=O)c1nnn(-c2ccccc2)c1C1CC1,-6.2% and -6.771%,-14.35%
CC(C)CC(=O)NCc1cccc(OCCN(C)C2CCOCC2)c1,17.91%,-3.318% and 29.69%
Cc1cccc(NC(=O)C2CCCN2C(=O)c2ccco2)c1C (stereo not drawn),-24.41%,-11.24%
O=C(O)C(F)(F)F.O=C(O)C(F)(F)F.[H][C@@]12CCN(Cc3ccoc3)[C@]1([H])CC[C@@H](C(=O)NCCc1ccccn1)O2,4.737%,32.84%
CCc1ncnc(N2CCOCC2C(N)=O)c1F (stereo not drawn),-4.511%,22.65%
O=C(c1cncnc1)N1Cc2ccccc2OC2(CCOCC2)C1,17.12%,21.72%
O=C(c1cscn1)N1CCC(Cn2cc(-c3ccsc3)nn2)CC1,-0.831%,3.237% and 2.505%
O=C(CCc1cccc(Cl)c1)NS(=O)(=O)Cc1ccon1,-4.073%,-10.66%
CCOCC1CCN(C(=O)c2sc(C)cc2OC(F)F)CC1,-23.71%,14.86% and 2.999%
Cc1c(F)cccc1S(=O)(=O)NCCN.Cl,12.06%,31.37% and -0.09832%
OCc1cn(Cc2cccc(F)c2)nn1,-10.5%,-1.869% and -4.452%
Cc1ccnc(CC(C)N(C)c2cc(C3CCNCC3)nc(C)n2)c1 (stereo not drawn),-7.601%,-27.48%
Cc1cc(CNC(=O)NCc2cccs2)no1,-3.239%,9.783%
Cc1cnn(CCC(=O)N2CCCC(c3ccn[nH]3)C2)c1 (stereo not drawn),-24.49%,1.656%
Cc1nnc(N2CCC(CS(N)(=O)=O)CC2)c(C#N)c1C,1.17%,-6.17%
Cc1ncc2c(n1)CN(CCCOc1ccc(C#N)cc1)CC2,-5.212%,15.9%
CCN1C(=O)CCC12CCCN(Cc1nccs1)C2.O=C(O)C(F)(F)F (stereo not drawn),-8.687% and -0.6016%,-1.144%
N#CC1(NC(=O)c2c(F)ccc(OC(F)F)c2F)CCOCC1,-17.48%,-31.4%
Cc1cnn(CCNCc2cc(C#N)ccc2F)c1,9.062%,-32.46%
Cc1ccc([C@@H]2CN(S(=O)(=O)C(C)C)C[C@H]2N(C)C)cc1,-1.814%,15.72%
O=C(c1cccc(-n2cccn2)c1)N1CCCOC(Cn2cccn2)C1 (stereo not drawn),-31.19%,-5.868%
OC(CN1CCN(Cc2nnc(C3CC3)o2)CC1)c1ccccc1 (stereo not drawn),-4.045%,-3.372%
CCCS(=O)(=O)N1CCC2(CC1)CN(CC1CCOC1)c1ccccc12.O=C(O)C(F)(F)F (stereo not drawn),2.585%,-15.85%
COc1ccc(CN(C(=O)C(C)C)c2cnn(C)c2)c(OC)c1,2.562%,1.2% and -19.88%
Cc1nnc(NC(=O)NC2CCCc3c2cnn3CCO)s1 (stereo not drawn),-9.014% and -3.502%,0.4304%
CCOc1nnc(CN(C)CC2CCCN2c2cccnn2)s1 (stereo not drawn),-20.32%,10.86% and 23.03%
CCC1CN(CCCNS(C)(=O)=O)c2ccccc2O1 (stereo not drawn),-7.207%,13.12% and 0.3696%
CN1CCCN(C(=O)c2nc3c(o2)CN(S(C)(=O)=O)C3)CC1,-1.55%,-14.83%
Cc1ccc(CN(Cc2ccncc2)C2CC(C)(C)NC(C)(C)C2)o1.O=C(O)CC(O)(CC(=O)O)C(=O)O,-11.54%,-13.45%
[H][C@]12CC[C@]([H])(CN(S(=O)(=O)c3ccc(Cl)cc3Cl)C1)N(C)C2=O,1.449%,12.48%
CN(Cc1ccsc1)C(=O)c1n[nH]c(N)c1-c1ccccc1,2.085%,30.94%
CCN(CC)Cc1nnc2sc(C(C)Oc3ccccc3)nn12 (stereo not drawn),-26.8%,-2.248% and 2.172%
CCn1cnnc1C1CCN(C(=O)COc2ccccc2OC)CC1,-18.17%,-18.7%
CC(C)C(=O)N1CCCC(Cc2ncccn2)C1 (stereo not drawn),-6.414% and -2.487%,-8.994%
FC(F)(F)CCN(Cc1ccon1)C1CCCC1,9.864%,-19.71% and -2.208%
CN1CCCC2(CC1)CCN(C(=O)CCc1ccccc1O)CC2,2.923%,1.735%
O=C(NCCSC1CCCC1)c1cc(C2CC2)on1,-7.741%,19.07%
Cc1nc(C(=O)N2CCCC2c2cncc(CN3CCCC3)n2)co1 (stereo not drawn),-25.81%,-4.75%
O=C(O)C(F)(F)F.O=C(c1ccncc1)N1CCCn2nnc(COCCO)c2C1,-5.269%,-1.754% and -2.001%
[H][C@@]12CS(=O)(=O)C[C@]1([H])N(Cc1ncc[nH]1)CCN2CC1CC1,11.13%,1.443%
CCOCCC(=O)Nc1cc(C)cnc1OC,-6.64%,1.2% and 9.433%
CN1CCc2onc(CNc3ncccn3)c2C1.O=C(O)C(F)(F)F.O=C(O)C(F)(F)F,-6.665%,-36.15%
COC(=O)N1CCCCC1C(=O)N1CCC(c2ccncc2)CC1 (stereo not drawn),-3.641%,10.45% and 0.9424%
Cc1ccc(CCCC(=O)N(C)CCN2CCOCC2)cc1,8.796%,-16.43%
COc1cccc(C(O)CNC(=O)CC2CCCCC2)c1 (stereo not drawn),4.662% and -1.253%,-6.202%
CCc1ccc(C(=O)NCC2CCCN2CC)o1 (stereo not drawn),-16.27%,-9.803%
CCc1nnc(N[C@H](C)c2cccc(OC)c2)o1,11.63%,0.2406% and 10.36%
Cc1ccc(CNC2(Cc3cc(C(C)(C)O)on3)COC2)o1,-23.38%,-10.99% and -0.3606%
FC(F)(F)c1nc(NC2CCCCC2)c2ccccc2n1,20.03%,11.63%
COCCC1(C(=O)O)CCCN(c2cc(C)c3ccccc3n2)C1 (stereo not drawn),5.122%,-4.686% and -13.77%
CN(C)CC1(O)CCCN(Cc2cnc(-c3ccco3)nc2)CC1 (stereo not drawn),0.9892%,2.221% and -0.8993%
O=C(O)C(F)(F)F.O=C(O)C(F)(F)F.[H][C@@]12COC[C@]1(C(=O)NCc1ccccn1)CN(Cc1ccsc1)C2,21.36%,10.88%
CS(=O)(=O)N1CCc2ccc(=O)n(CC3CC3)c2CC1,-15.8% and 13.1%,-4.986% and -4.866%
CNS(=O)(=O)c1ccccc1N1CCN(C(C)C(N)=O)CC1 (stereo not drawn),-1.595%,5.839% and 0.7243%
COC(=O)CSCc1noc(-c2ccc(C)cc2)n1,22.19%,53.81% and 67.49%
CCN(Cc1cnc(C)cn1)C1CCN(c2ccccc2)C1=O (stereo not drawn),-0.516%,9.544%
Cc1cc(NC(=O)CN2CCCC2c2c(C)nn(C)c2Cl)on1 (stereo not drawn),12.08%,1.788% and -23.96%
Cc1ccc(C(=O)N2CCCC(CNS(C)(=O)=O)C2)o1 (stereo not drawn),-12.84%,-31.12%
CN1CC(=O)N(c2cccc(F)c2)CC12CCN(CC1CC1)C2.O=C(O)C(F)(F)F.O=C(O)C(F)(F)F (stereo not drawn),-19.34%,-16.03%
COCCN(C)C[C@@H]1CN(C(=O)c2ccc(C)cc2)C[C@@H]1CO,-17%,-16.76%
Cc1csc(C2CCCN(C(=O)c3cnc[nH]3)C2)n1 (stereo not drawn),-11.2%,10.93%
COCC(=O)N1CCCC(Cc2cnc(-c3c(C)n[nH]c3C)cn2)C1 (stereo not drawn),-0.3192%,18.25%
CC(C(=O)N1CCCCC1)N1CCN(c2ncc(Cl)cn2)CC1 (stereo not drawn),2.806%,5.238%
Cc1oncc1C(=O)N1CC2CC1(C(=O)NCc1ccco1)C2,13.79%,13.49%
CCc1cnc(CN2CCOC(c3nc(C)n[nH]3)C2)o1 (stereo not drawn),3.317%,5.684%
Cc1nc(C(=O)N2CCCCC2)nn1-c1ccccc1Cl,-10.35%,33.11%
[H][C@]12C[C@@H](Cn3cncn3)N(C(C)=O)[C@@]1([H])CCN(C(=O)c1ccoc1)C2,-11.64%,-0.8661%
CCC(CO)NCc1ccc(-c2ccc(F)c(Cl)c2)o1.Cl (stereo not drawn),36.73%,36.25% and 26.31%
COCc1nc(CN2CC(=O)N(C)c3ccccc3C2=O)no1,-26.62%,16.72%
CCn1ccnc1CN1CCCN(C(=O)COC2CCCC2)CC1,-28.61%,-25.05%
N#Cc1ccnc(N2CCN(C3CCOC3=O)CC2)c1 (stereo not drawn),-10.76%,-7.81% and -1.626%

Once more, the final 9:

For CC(C(=O)N1CCCCC1)N1CCN(c2ncc(Cl)cn2)CC1 (stereo not drawn) the result was Mtb cholesterol medium: 2.806%; Mtb glucose medium: 5.238%.
For Cc1oncc1C(=O)N1CC2CC1(C(=O)NCc1ccco1)C2 the result was Mtb cholesterol medium: 13.79%; Mtb glucose medium: 13.49%.
For CCc1cnc(CN2CCOC(c3nc(C)n[nH]3)C2)o1 (stereo not drawn) the result was Mtb cholesterol medium: 3.317%; Mtb glucose medium: 5.684%.
For Cc1nc(C(=O)N2CCCCC2)nn1-c1ccccc1Cl the result was Mtb cholesterol medium: -10.35%; Mtb glucose medium: 33.11%.
For [H][C@]12C[C@@H](Cn3cncn3)N(C(C)=O)[C@@]1([H])CCN(C(=O)c1ccoc1)C2 the result was Mtb cholesterol medium: -11.64%; Mtb glucose medium: -0.8661%.
For CCC(CO)NCc1ccc(-c2ccc(F)c(Cl)c2)o1.Cl (stereo not drawn) the result was Mtb cholesterol medium: 36.73%; Mtb glucose medium: 36.25% and 26.31%.
For COCc1nc(CN2CC(=O)N(C)c3ccccc3C2=O)no1 the result was Mtb cholesterol medium: -26.62%; Mtb glucose medium: 16.72%.
For CCn1ccnc1CN1CCCN(C(=O)COC2CCCC2)CC1 the result was Mtb cholesterol medium: -28.61%; Mtb glucose medium: -25.05%.
For N#Cc1ccnc(N2CCN(C3CCOC3=O)CC2)c1 (stereo not drawn) the result was Mtb cholesterol medium: -10.76%; Mtb glucose medium: -7.81% and -1.626%.